The values that follow come from PMC3695512.

Sequences of proteins named here, by UniProt entry; tags and fusion partners are left off.
UniProt O07897, entry or part of it R444A: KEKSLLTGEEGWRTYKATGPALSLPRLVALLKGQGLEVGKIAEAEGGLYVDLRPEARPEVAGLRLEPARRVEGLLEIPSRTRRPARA
UniProt O07897, entry or part of it Y472A: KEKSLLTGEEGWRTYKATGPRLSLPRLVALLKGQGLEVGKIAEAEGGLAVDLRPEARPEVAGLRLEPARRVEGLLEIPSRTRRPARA

Series [1] has as its target Hera_RBD R444A (Thermus thermophilus) (UniProt O07897). As to the kind of experiment: fluorescence anisotropy. Conditions: 5 mM Mg2+; Anisotropy: 50 mM Tris/HCl pH 7.5, 150 mM NaCl, 5 mM MgCl2 (Fig 2), 25 C, 50 nM RNA; recombinant protein; label: 5'-fluorescein. In general terms: Fluorescence polarisation rises when a labelled molecule tumbles more slowly, as on binding a larger partner.

The target in series [2] is Hera_RBD Y472A (Thermus thermophilus) (UniProt O07897). Kind of series: fluorescence anisotropy. Conditions: 5 mM Mg2+; Anisotropy: 50 mM Tris/HCl pH 7.5, 150 mM NaCl, 5 mM MgCl2 (Fig 2), 25 C, 50 nM RNA; recombinant protein; label: 5'-fluorescein.

Construct, isoform or probe ends are uncertain for at least one entry. The comparison behind a weaker result is the experiment's own reference, which may not be listed here.

Turning to “GCAGGUCCCAAGGGUUGGGCUGUUCGCCCAUU [32mer]”, the binding result in series [1] and in series [2] was “binds more weakly” throughout.
